# From PubChem BioAssay AID2685 (National Center for Advancing Translational Sciences (NCATS), 2010)
# Some of the results follow. Further columns of the screen follow, without active or inactive calls. Most of these compounds were active or inconclusive in the main read-out, so they are no random draw. Potencies come from curve fits of mixed quality, noted in brackets.
# Experiment: qHTS Assay for Lipid Storage Modulators in Drosophila S3 Cells;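 for cell number change: cells counted by Cell Tracker Red CMTPX staining in the red channel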
# Settings: BODIPY lipid droplet fluorescence, 18-24 h; for cell number change: measured here: cell count max response, cells fed with added oleic acid
# Method in brief: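 Drosophila S3 cells loaded with oleic acid (400 uM, as added) and compounds at several concentrations; lipid droplets imaged by 488-nm laser-scanning cytometry, 500–530 nm intensity and object ratio to cell channel. Percent activity normalized to 20 uM Triacsin C.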
# [1] = measured here: cell number channel AC50, cells fed with added oleic acid
# [2] = measured here: lipid fluorescence (Fed channel) AC50, cells fed with added oleic acid
SMILES,cell number change,AC50 [1],AC50 [2]
COc1ccc(NS(=O)(=O)c2ccc(C)c(C(=O)NCC(c3ccco3)N3CCCCC3)c2)cc1 (configuration not stated),140%,"23.1 µM [rising, single point]",
Cc1oc2ccc(O)cc2c1C(=O)c1ccc([N+](=O)[O-])cc1,-26.1%,,"4.61 µM [falling, full curve]"
Cc1ccc(C(=O)COC(=O)c2cc(Cl)ccc2O)cc1[N+](=O)[O-],-3.52%,,"32.6 µM [falling, single point]"
COc1ccc(/C=N/NC(=O)c2c(-c3ccccc3)noc2C)cc1[N+](=O)[O-],22.5%,,"4.61 µM [rising, full curve]"
O=C(NCc1ccco1)C1CCCN1S(=O)(=O)c1ccc2ccccc2c1 (configuration not stated),,"2.59 µM [rising, single point]",
N/C(COc1ncn(-c2ccccc2)n1)=N\S(=O)(=O)c1ccc(Cl)cc1Cl,150%,"29.1 µM [rising, single point]",
Cc1ccc(Sc2ccc(NC(=O)c3ccc(S(C)(=O)=O)cc3Cl)cc2)cc1,-46.1%,"29.1 µM [falling, single point]","11.6 µM [falling, partial curve, poor fit]"
COCc1ccc(C(=O)N2CCCC(CNC(=O)c3ccc(F)cc3)C2)o1 (configuration not stated),7.33%,,
COC(=O)c1sccc1NC(=O)Nc1ccc(Cl)c(Cl)c1,25%,"3.66 µM [rising, single point]",
Cc1nn(-c2ccc(F)cc2)c(Cl)c1C(=O)N(C)CC(=O)Nc1cccc(F)c1,75%,,
CCOC(=O)c1cc2cc(-c3c(C(=O)OCC)oc4cc(O)cc(O)c4c3=O)ccc2o1,-45.1%,"16.4 µM [falling, single point]","32.6 µM [falling, single point]"
CCc1noc(C)c1C(=O)N1CCCC(CCC(=O)NCc2ccc(F)c(F)c2)C1 (configuration not stated),-21.7%,,"10.3 µM [falling, partial curve]"
COc1cc(CCN2C(=O)N[C@@H](CCc3ccccc3)C(C(C)=O)=C2C)cc(OC)c1OC,16.5%,,"0.82 µM [rising, full curve]"
CCOC(=O)CC(=O)CSc1nc2c(C)c(C)ccc2cc1C,,,"2.91 µM [rising, partial curve]"
COc1ccc(S(=O)(=O)N(C)CC(=O)NCc2ccc3c(c2)OCO3)cc1,,,"2.91 µM [falling, partial curve]"
CCN(CC)c1ccc(NC(=S)NC(=O)C2CCC2)cc1,,,"3.26 µM [falling, partial curve]"
CCOC(=O)C1CCCN(CC(=O)Nc2c(F)c(F)c(F)c(F)c2F)C1 (configuration not stated),1.28%,,
CCn1c(SCC(=O)N2CCCC(C)C2)nnc1-c1ccco1 (configuration not stated),11.4%,,
CCOc1ccc(NC(=O)c2cc(F)c(F)cc2Cl)cc1OCC,12.1%,,"3.26 µM [rising, single point]"
CCCCNC(=O)c1sc2ncnc(N3CCc4ccccc4C3)c2c1C,-14.5%,,

# Just AC50 [2], for 2 of the compounds above:
SMILES	AC50 [2]
Cc1ccc(C(=O)COC(=O)c2cc(Cl)ccc2O)cc1[N+](=O)[O-]	32.6 µM [falling, single point]
COc1ccc(/C=N/NC(=O)c2c(-c3ccccc3)noc2C)cc1[N+](=O)[O-]	4.61 µM [rising, full curve]

# Continued.

SMILES,cell number change,AC50 [1],AC50 [2]
Cc1ccc(-c2nnc(Nc3ccccc3)o2)cc1,,"0.164 µM [falling, full curve, poor fit]",
Cc1ccc(-c2cc(C(=O)NC3=NCCS3)c3cc(Br)ccc3n2)o1,,,"6.51 µM [rising, partial curve, poor fit]"
Cc1ccc(C(=O)N[C@@H](Cc2ccccc2)C(=O)N2CCC3(CC2)NCCc2[nH]cnc23)cc1C,-2.97%,,"6.51 µM [falling, single point]"
CCOCc1nnc(NC(=O)c2ccc(NC(C)=O)cc2)s1,-15.9%,,"0.082 µM [falling, full curve, poor fit]"
O=C(N/N=C/c1ccc([N+](=O)[O-])o1)C(O)c1ccccc1 (configuration not stated),-59.7%,"6.51 µM [falling, full curve]","1.3 µM [falling, full curve]"
CC(=O)N1N=C(c2ccccc2)CC1c1ccccc1 (configuration not stated),10.3%,,"0.092 µM [rising, full curve, poor fit]"
CN(C)S(=O)(=O)c1cccc(NC(=O)COC(=O)/C=C/c2ccco2)c1,-35%,"0.231 µM [falling, full curve]","2.59 µM [falling, full curve, poor fit]"
COc1ccccc1C(CNC(=O)c1ccc(OCc2c(C)noc2C)cc1)N1CCCC1 (configuration not stated),21.7%,,"29.1 µM [rising, single point]"
COc1ccc(NC2CCCN(C(=O)CSc3ccccc3)C2)cc1OC (configuration not stated),-13.8%,,"16.4 µM [falling, single point]"
O=C(c1cc2cc(F)ccc2[nH]1)N1CCN(c2cccc(Cl)c2)CC1,35.1%,"0.231 µM [rising, full curve, poor fit]",
CN1CCN(c2ccc(NC(=O)CN3CCOCC3)cc2F)CC1,-24.3%,,
O=C(NCC(=O)N1CCCCC1)c1ccc2ccccc2c1,16.2%,,"16.4 µM [rising, single point]"
O=C1CCCC2=C1C1O[C@](CCCCN3C(=O)c4ccccc4C3=O)(Cc3c1ccc1ccccc31)O2,0.0835%,,"0.596 µM [rising, single point]"
O=C1CCC/C1=C\Nc1ccc(Cl)c([N+](=O)[O-])c1,21.9%,"0.00461 µM [rising, full curve, poor fit]","0.00517 µM [rising, full curve, poor fit]"
CCCCCCn1ccc(=N)cc1,-42%,"4.11 µM [falling, partial curve]","13 µM [falling, partial curve]"
CC(C)NC(=O)c1sc(=S)n2c1[nH]c(=O)c1ccc(C(=O)NCCc3ccc(Cl)cc3)cc12,,,"0.366 µM [falling, partial curve]"
O=C(c1ccccc1Cl)N1CCN(S(=O)(=O)N2CCCCC2)CC1,11.7%,,"29.1 µM [rising, single point]"
CCc1ccc(-c2nc(CS(=O)CC(=O)NCCCN3CCOCC3)c(C)o2)cc1 (configuration not stated),9.13%,,"29.1 µM [rising, single point]"
COc1cccc2c1cc1c(=O)n(CC(=O)N3CCC(C)CC3)nc(C)n12,,,"0.517 µM [rising, partial curve]"
Cc1nc(-c2nc(-c3c(C(=O)NNC(=O)Nc4ccccc4)noc3C)cs2)cs1,24.9%,,"2.06 µM [rising, full curve, poor fit]"

SMILES,cell number change,AC50 [1],AC50 [2]
CCOc1ccc2[nH]c(=O)c(CN(Cc3nnnn3CCc3ccccc3)CC3CCCO3)cc2c1 (configuration not stated),-29%,,"16.4 µM [falling, single point]"
O=C(COS(=O)c1ccccc1)Nc1cc(Cl)ccc1N1CCOCC1 (configuration not stated),-38.2%,"5.17 µM [falling, full curve]","6.51 µM [falling, full curve]"
COc1cc(C(=O)NC(=S)Nc2ccc(Cl)cn2)cc(OC)c1OC,4.58%,,"29.1 µM [rising, single point]"
COc1ccccc1NC(=O)C(C)N1C(=O)C2CCCCC2C1=O (configuration not stated),17%,,"29.1 µM [rising, single point]"
CCN(Cc1ccc(OC)c(COC)c1)CC1CCCN(CCc2cccc(F)c2)C1 (configuration not stated),-6.22%,,"0.731 µM [rising, single point]"
CN(c1cccc(Cl)c1)S(=O)(=O)c1cccc(C(=O)NN2CCOCC2)c1,-32%,"8.2 µM [falling, partial curve, poor fit]","6.51 µM [falling, full curve, poor fit]"
COc1cc(OC)c(C(=O)N(CCc2ccccc2)Cc2ccccc2)cc1OC,-37.6%,"31.6 µM [falling, single point]",
O=C(c1ccc(Cl)cc1)N1CCCCC(Cl)C1=O (configuration not stated),-37%,,"7.31 µM [falling, partial curve]"
CS(=O)(=O)N1CCCC(C(=O)N2CCOCC2)C1 (configuration not stated),-42.8%,"18.4 µM [falling, single point]","29.1 µM [falling, single point]"
Oc1[nH]c2ccccc2c1N=Nc1ccc(F)cc1,,,"11.6 µM [falling, partial curve]"
Cc1ccc2cc(C(c3nnnn3Cc3ccccc3)N3CCc4ccccc43)c(=O)[nH]c2c1 (configuration not stated),16.5%,"0.411 µM [rising, partial curve, poor fit]","6.51 µM [rising, partial curve]"
O=C1Nc2ccccc2C12OCCCCO2,8.19%,,"0.326 µM [rising, full curve, poor fit]"
COc1ccc(C2CC(c3cccs3)=NN2C(=S)Nc2ccccc2)cc1OC (configuration not stated),0.195%,,"0.366 µM [rising, single point]"
COc1ccc(-n2cc(CN(C)CCO)c(-c3cccc(F)c3)n2)cc1,-23.8%,,"29.1 µM [falling, partial curve, poor fit]"
Cc1cc(C)c(NC(=O)CN2CCN(c3ccccn3)CC2)c(C)c1,-4.67%,,"6.51 µM [rising, single point]"
CC1(C)CC(NC(=O)C2CCCCC2C(=O)O)CC(C)(C)N1 (configuration not stated),4.49%,,"0.146 µM [falling, full curve, poor fit]"
Cc1ccc(S(=O)(=O)NC(=S)NC2CCCCC2)cc1,33.2%,"20.6 µM [rising, single point]","8.2 µM [rising, partial curve, poor fit]"
Cc1ccc(-n2nc3c(=O)n(C(C)C(=O)NCc4ccc5c(c4)OCO5)nc(C)c3c2C)cc1 (configuration not stated),-22.4%,,"6.51 µM [rising, single point]"
